Test [1] addresses pyruvate kinase muscle 2 (PKM2), human (human (endogenous in HMDMs)) (UniProt P14618). Kind of test: co-IP; lysates of murine peritoneal macrophages (20 ug/ml oxLDL) or HMDMs (50 ug/ml oxLDL) treated for the indicated periods; precleared, about 1 mg protein with anti-PKM2 overnight at 4 C, A/G agarose beads, immunoblot of GRP75 or UQCRC1.
Test [2] has as its target pyruvate kinase muscle 2 (PKM2), mouse (mouse (endogenous in peritoneal macrophages)) (UniProt P52480). Described as above.
Test [3] shares this target. Kind of test: proximity ligation; fixed macrophages with or without 20 ug/ml oxLDL for 24 h; rabbit anti-PKM2 and mouse anti-UQCRC1, species-specific secondary antibodies with DNA strands; confocal microscopy.
Test [4] has the same target. Kind of test: co-IP; lysates of murine peritoneal macrophages (20 ug/ml oxLDL) or HMDMs (50 ug/ml oxLDL) treated for the indicated periods; precleared, about 1 mg protein with anti-PKM2 overnight at 4 C, A/G agarose beads, immunoblot of GRP75 or UQCRC1. The source holds these as a separate data set. On the technique in general: In western blotting, separated proteins are transferred to a membrane and probed.

Amino acid sequences for entries named in this document (tags omitted). Residues count along the entry.
UniProt P14618: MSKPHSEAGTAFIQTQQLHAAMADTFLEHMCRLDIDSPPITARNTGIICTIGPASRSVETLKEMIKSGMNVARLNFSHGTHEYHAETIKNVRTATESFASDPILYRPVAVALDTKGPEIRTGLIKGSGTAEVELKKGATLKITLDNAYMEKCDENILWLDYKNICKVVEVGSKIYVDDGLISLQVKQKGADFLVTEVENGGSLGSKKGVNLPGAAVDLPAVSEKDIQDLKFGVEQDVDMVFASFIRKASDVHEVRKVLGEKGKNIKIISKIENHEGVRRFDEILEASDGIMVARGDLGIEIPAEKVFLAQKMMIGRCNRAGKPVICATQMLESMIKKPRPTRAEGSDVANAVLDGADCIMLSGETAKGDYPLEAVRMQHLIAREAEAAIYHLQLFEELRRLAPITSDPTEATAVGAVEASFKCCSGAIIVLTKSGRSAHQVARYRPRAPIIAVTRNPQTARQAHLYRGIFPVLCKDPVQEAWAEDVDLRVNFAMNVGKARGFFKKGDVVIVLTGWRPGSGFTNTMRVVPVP
UniProt P52480: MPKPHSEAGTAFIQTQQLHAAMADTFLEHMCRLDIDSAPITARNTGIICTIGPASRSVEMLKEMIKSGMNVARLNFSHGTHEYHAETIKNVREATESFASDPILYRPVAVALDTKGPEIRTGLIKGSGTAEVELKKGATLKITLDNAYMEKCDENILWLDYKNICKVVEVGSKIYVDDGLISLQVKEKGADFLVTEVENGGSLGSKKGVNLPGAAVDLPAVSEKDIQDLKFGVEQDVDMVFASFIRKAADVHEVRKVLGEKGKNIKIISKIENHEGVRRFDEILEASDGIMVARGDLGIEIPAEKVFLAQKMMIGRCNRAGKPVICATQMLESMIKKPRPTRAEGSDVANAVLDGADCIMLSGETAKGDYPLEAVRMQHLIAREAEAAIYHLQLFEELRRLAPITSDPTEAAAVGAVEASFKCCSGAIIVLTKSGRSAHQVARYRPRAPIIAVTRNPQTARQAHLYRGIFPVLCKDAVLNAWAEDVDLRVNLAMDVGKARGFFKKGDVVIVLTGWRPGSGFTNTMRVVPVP
UniProt P38646, residues 47-679: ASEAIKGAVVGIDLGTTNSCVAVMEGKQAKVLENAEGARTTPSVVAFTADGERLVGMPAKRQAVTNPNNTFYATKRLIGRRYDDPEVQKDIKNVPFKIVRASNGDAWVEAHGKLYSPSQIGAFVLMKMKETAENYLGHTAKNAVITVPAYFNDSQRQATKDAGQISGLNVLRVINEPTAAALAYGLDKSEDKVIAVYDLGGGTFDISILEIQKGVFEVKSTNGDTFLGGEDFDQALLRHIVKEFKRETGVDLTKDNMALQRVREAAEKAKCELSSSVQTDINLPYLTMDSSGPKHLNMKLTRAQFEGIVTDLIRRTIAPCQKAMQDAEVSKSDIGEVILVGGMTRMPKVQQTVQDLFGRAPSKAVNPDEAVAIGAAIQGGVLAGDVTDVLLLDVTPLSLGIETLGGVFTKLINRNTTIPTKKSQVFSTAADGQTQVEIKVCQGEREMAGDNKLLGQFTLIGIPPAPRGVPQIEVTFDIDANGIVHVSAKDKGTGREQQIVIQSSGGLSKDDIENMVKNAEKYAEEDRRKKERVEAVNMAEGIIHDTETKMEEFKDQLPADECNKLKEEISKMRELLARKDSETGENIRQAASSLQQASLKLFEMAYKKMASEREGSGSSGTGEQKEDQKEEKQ
UniProt P38647, residues 47-679: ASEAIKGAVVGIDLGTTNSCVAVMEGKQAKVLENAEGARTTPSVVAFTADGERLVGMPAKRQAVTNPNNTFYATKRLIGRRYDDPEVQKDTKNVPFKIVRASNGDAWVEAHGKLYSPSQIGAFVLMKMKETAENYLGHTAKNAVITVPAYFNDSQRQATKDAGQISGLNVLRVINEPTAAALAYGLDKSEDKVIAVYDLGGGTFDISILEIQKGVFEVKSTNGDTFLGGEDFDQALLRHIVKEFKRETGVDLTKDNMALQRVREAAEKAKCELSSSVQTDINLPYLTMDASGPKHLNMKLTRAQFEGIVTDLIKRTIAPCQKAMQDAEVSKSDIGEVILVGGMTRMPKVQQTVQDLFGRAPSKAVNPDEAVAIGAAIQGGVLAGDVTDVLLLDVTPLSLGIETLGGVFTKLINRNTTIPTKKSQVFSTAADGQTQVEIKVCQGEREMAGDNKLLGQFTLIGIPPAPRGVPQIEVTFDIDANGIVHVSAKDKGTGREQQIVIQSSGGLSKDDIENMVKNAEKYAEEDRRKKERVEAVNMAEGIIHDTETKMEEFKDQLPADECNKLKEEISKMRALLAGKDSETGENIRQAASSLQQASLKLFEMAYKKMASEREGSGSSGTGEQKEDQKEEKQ

Results are given in words; binding and its absence hold for the method and conditions named. In cells and extracts the contact can be indirect. Some results given as binding are weak or reduced against the parent protein; the word gives no strength.

Take “GRP75, human (from UniProt P38646 47-679)”: the binding result in test [1] was “binds”.
As for “GRP75, mouse (from UniProt P38647 47-679)”, in test [2], the binding result was “binds”.

B1: UQCRC1, a subunit of ETC complex III, mouse (protein, UniProt Q9CZ13 35-480)
chain: TATFAQALQSVPETQVSILDNGLRVASEQSSHATCTVGVWIDAGSRYETEKNNGAGYFLEHLAFKGTKNRPGNALEKEVESIGAHLNAYSTREHTAYLIKALSKDLPKVVELLADIVQNSSLEDSQIEKERDVILREMQENDASMQNVVFDYLHATAFQGTPLAQAVEGPSENVRRLSRTDLTDYLNRHYKAPRMVLAAAGGVEHQQLLDLAQKHLSSVSRVYEEDAVPGLTPCRFTGSEIRHRDDALPLAHVAIAVEGPGWANPDNVTLQVANAIIGHYDCTYGGGVHLSSPLASVAVANKLCQSFQTFNISYSDTGLLGAHFVCDAMSIDDMVFFLQGQWMRLCTSATESEVTRGKNILRNALVSHLDGTTPVCEDIGRSLLTYGRRIPLAEWESRIQEVDAQMLRDICSKYFYDQCPAVAGYGPIEQLPDYNRIRSGMFWLRF
In the case of B1, the binding result in test [3] and in test [4] was “binds” each time.

Values taken from article PMC12142535.
